Results deposited as PubChem BioAssay AID504793 (Drosophila RNAi Screening Center, 2011)

Screen: 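Whole-genome screen for parts of the DNA damage checkpoint at G2/M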 (primary screen)
System: Drosophila S2R+ cells
Reagent: long dsRNA against Drosophila genes, about 0.25 µg dsRNA per well
Timing: 4 days of dsRNA, then 4 hours of drug before read-out
Treatment: doxorubicin 0.5 µM for 4 hours to cause double-strand breaks, in cells also given a low, harmless dose of dsRNA against nbs to sensitise the assay
Read-out: 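Per-well count of mitotic cells stained for phospho-histone H3 after doxorubicin exposure, used as mitotic index; counts are raw and not normalised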
Reading the numbers: mitotic cells: higher = more cells in mitosis, weaker G2 arrest
Call rule: 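a call needs confirmation in secondary tests, with other dsRNAs and a check of mitotic timing without damage, not just a high primary count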
Meaning of the calls: active = confirmed in follow-up tests; inactive = not confirmed
In all, the deposit lists about 23,000 reagents; this is a random part of those that have a named target and a result. Of all reagents, 62 (0.27%) are marked active. 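Calls come from follow-up tests whose scores are not deposited, so confirmed genes may have low counts here; counts are not normalised per plate.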 Raw values are not corrected between plates.

| predicted target | amplicon | mitotic cells, replicate 1 | mitotic cells, replicate 2 | activity call |
| --- | --- | --- | --- | --- |
| CG32473 | DRSC14352 | 2 | – | inactive |
| CG32473 | DRSC16446 | 9 | – | inactive |
| Rcd-1 | DRSC19569 | 17 | – | inactive |
| ProRS-m | DRSC08261 | 1 | – | inactive |
| ProRS-m | DRSC30008 | 3 | – | inactive |
| gbb | DRSC04687 | 6 | – | inactive |
| gbb | DRSC25717 | 7 | – | inactive |
| Alg13 | DRSC14864 | 13 | – | inactive |
| Alg13 | DRSC28209 | 7 | – | inactive |
| Fign | DRSC00592 | 3 | – | inactive |
| CG4270 | DRSC00648 | 7 | – | inactive |
| Mes2 | DRSC11593 | 7 | – | inactive |
| Mes2 | DRSC11632 | 4 | 7 | inactive |
| HipHop | DRSC10734 | 7 | – | inactive |
| CG31099 | DRSC14252 | 17 | – | inactive |
| CG31099 | DRSC23973 | 6 | – | inactive |
| kek1 | DRSC03551 | 6 | – | inactive |
| FipoQ | DRSC15413 | 12 | – | inactive |
| FipoQ | DRSC24515 | 6 | – | inactive |
| Obp56a | DRSC06085 | 3 | – | inactive |
| Obp56a | DRSC30070 | 1 | – | inactive |
| Fic | DRSC03247 | 10 | – | inactive |
| Tmep | DRSC08215 | 4 | – | inactive |
| Tmep | DRSC26652 | 3 | – | inactive |
| Ilp2 | DRSC10968 | 1 | – | inactive |
| Ilp2 | DRSC29688 | 5 | – | inactive |
| CG5897 | DRSC10555 | 2 | – | inactive |
| Pbp45 | DRSC16509 | 5 | – | inactive |
| Dhc36C | DRSC03315 | 5 | – | inactive |
| CG14634 | DRSC17944 | 22 | – | inactive |
| Hipk | DRSC07885 | 10 | – | inactive |
| Hipk | DRSC23155 | 17 | – | inactive |
| CG13133 | DRSC02230 | 4 | – | inactive |
| Nipped-A | DRSC04883 | 4 | – | inactive |
| Nipped-A | DRSC04884 | 4 | – | inactive |
| Nipped-A | DRSC07738 | 6 | – | inactive |
| Nipped-A | DRSC22386 | 5 | – | inactive |
| CheA7a | DRSC17965 | 14 | – | inactive |
| CG12360 (retired record) | DRSC14505 | 5 | – | inactive |
| CG7747 | DRSC07038 | 5 | – | inactive |
| CG7747 | DRSC26745 | 10 | – | inactive |
| Syx17 | DRSC08591 | 8 | – | inactive |
| CG12448 | DRSC01967 | 7 | – | inactive |
| toy | DRSC17222 | 15 | – | inactive |
| toy | DRSC25870 | 4 | – | inactive |

Not a retest: 3 of the entries above.
| predicted target | amplicon | mitotic cells, replicate 1 | mitotic cells, replicate 2 | activity call |
| --- | --- | --- | --- | --- |
| CG13133 | DRSC02230 | 4 | – | inactive |
| Nipped-A | DRSC04883 | 4 | – | inactive |
| Nipped-A | DRSC04884 | 4 | – | inactive |
